The results in this text go back to publication PMC4751342.

The target in this test is mouse Juno, complete ectodomain (residues G20-A221), soluble protein (mouse) (UniProt Q9EQF4). The test is described as follows: SEC; affinity-purified Juno after enzymatic trimming of N-glycans; both purified. (In gel filtration, larger molecules generally elute earlier.)

Results are given in words; binding and its absence hold for the method and conditions named.

B1: mouse Juno, complete ectodomain (residues G20-A221), soluble protein (domain or fragment, UniProt Q9EQF4 20-221)
chain: GDKLLSVCMNSKRHKQEPGPEDELYQECRPWEDNACCTRSTSWEAHLEEPLLFNFSMMHCGLLTPACRKHFIQAICFHECSPNLGPWIQPVVPNGQEEQRVWGVPLCQEDCEDWWRACHSSLTCKSNWLHGWDWSEEKKHCPAHEPCLPFSYHFPTPDDLCEKIWNNTFKASPERRNSGRCLQKWFEPTLSNPNVEVALHFA
modifications: N-glycans enzymatically trimmed; GlcNAc attached to N185
Consider B1, for which the binding result is given as “no binding”.
